Data as given in PubChem BioAssay AID1259329 (Drosophila RNAi Screening Center, 2017)

Purpose: 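Total ATP after each knock-down with water instead of metal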
Cells: Drosophila S2R+ cells
Knock-down reagent: long dsRNA against Drosophila genes
Duration: 5 days (4 days knock-down, then 1 day after water)
Conditions: water added as vehicle control, no metal, one day before read-out
Measurement: 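Luciferase-based total ATP per well, read one day after adding water without metal following 4 days knock-down, given as z-score averaged across duplicate plates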
Direction: mean ATP z-score: higher = more total ATP, likely more viable cells
Active means: 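a reagent counts as active if its z-score is greater than 1.5 or less than -1.5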
This is one part, drawn at random, of 418 deposited reagents. In the full data, 20 (4.8%) were called active. 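All active calls have high ATP; no reagent fell below -1.5.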 Unmarked entries are inactive. Not stated in the record: the amount of reagent, the dose of the treatment.

TrpRS-m [DRSC10848]
- mean ATP z-score: 0.623

TrpRS-m [DRSC40413]
- mean ATP z-score: -0.168

CG5065 [DRSC06912]
- mean ATP z-score: -0.268

Pex3 [DRSC10731]
- mean ATP z-score: 1.14

Pex3 [DRSC40003]
- mean ATP z-score: 1.56 (active)

Pex11c [DRSC14677]
- mean ATP z-score: 0.188

Next part; the last 2 above are carried over.
Pex3 [DRSC40003]
- mean ATP z-score: 1.56 (active)

Pex11c [DRSC14677]
- mean ATP z-score: 0.188

Vha100-1 [DRSC26617]
- mean ATP z-score: 1.04

Vha100-1 [DRSC38989]
- mean ATP z-score: -0.201

Vha100-1 [DRSC39862]
- mean ATP z-score: -0.544

Lamp1 [DRSC03727]
- mean ATP z-score: -1.21

Lamp1 [DRSC31130]
- mean ATP z-score: -1.49

Lamp1 [DRSC31131]
- mean ATP z-score: -1.34

Cln7 [DRSC11005]
- mean ATP z-score: 0.474

Cln7 [DRSC40187]
- mean ATP z-score: 0.655

ZnT63C [DRSC08519]
- mean ATP z-score: 0.252

ZnT63C [DRSC23528]
- mean ATP z-score: -0.714

ZnT63C [DRSC37698]
- mean ATP z-score: 0.215

CG4860 [DRSC21755]
- mean ATP z-score: -0.204

ScpX [DRSC03430]
- mean ATP z-score: 0.0702
